# Laboratory results: article PMC8533794, “Selection of a Nuclease-Resistant RNA Aptamer Targeting CD19”
# For at least one entry, the source does not settle the construct or the ends of the probe. Where cells or extracts were used, other partners may take part. No signal at the amounts used counts as a negative.
# How the values were obtained:
# [1] = molecular target: T1, CD19 on transfected COS-7 cells (human) (UniProt P15391); experiment: cell binding RT-qPCR; settings: 200 nM aptamer, poly(I); 2'-fluoro pyrimidines; cell binding: serum-free medium, 37 C, 30 min, with poly(I) 0.1 ug/uL (qPCR) or tRNA 0.4 ug/uL plus 100 nM Ctrl Apt (FACS); protein on the cell surface
# T1 sequence: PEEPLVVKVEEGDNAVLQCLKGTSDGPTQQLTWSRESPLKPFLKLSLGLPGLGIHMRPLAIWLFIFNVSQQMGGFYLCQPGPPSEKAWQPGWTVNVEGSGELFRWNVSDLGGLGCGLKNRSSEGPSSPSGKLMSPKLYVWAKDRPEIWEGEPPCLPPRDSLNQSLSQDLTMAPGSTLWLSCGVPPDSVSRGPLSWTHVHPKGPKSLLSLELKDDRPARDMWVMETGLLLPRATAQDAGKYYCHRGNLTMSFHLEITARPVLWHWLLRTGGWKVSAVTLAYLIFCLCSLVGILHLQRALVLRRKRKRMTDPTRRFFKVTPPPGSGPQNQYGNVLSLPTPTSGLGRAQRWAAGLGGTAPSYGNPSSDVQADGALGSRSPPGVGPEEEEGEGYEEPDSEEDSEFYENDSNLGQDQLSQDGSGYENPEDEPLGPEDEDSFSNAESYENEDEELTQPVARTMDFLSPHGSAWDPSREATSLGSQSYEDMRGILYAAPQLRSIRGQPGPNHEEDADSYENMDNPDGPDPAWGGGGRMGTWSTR
# [2] = molecular target: T2, endogenous CD19 of MEC-1 cells (human (MEC-1 B-CLL cell line)) (UniProt P15391); experiment: pull-down, anti-CD19 immunoblot; settings: 400 nM aptamer on MEC-1 cells, then lysis; 2'-fluoro pyrimidines; pull-down lysis: 10 mM Tris-HCl pH 7.5, 200 mM NaCl, 5 mM EDTA, 0.1% Triton X-100; protein on the cell surface; label: 3' biotin (BioBB)
# T2 sequence: T1 sequence
Sequence,binding result [1],binding result [2]
GGGAGACAAGAAUAAACGCUCAACGUGCAACGCACAAAUUCUUGAUCAUCUCAAUGAUGUGUGCUUUCGACAGGAGGCUCACAACAGGC [B97],no binding,–
GGGAGACAAGAAUAAACGCUCAAUGAUAGACAUUCGGUGCUCUCUUUCAUUGACCGUUCACCUGUUGUUCGACAGGAGGCUCACAACAGGC [B88],binds,–
UUCGUACCGGGUAGGUUGGCUUGCACAUAGAACGUGUCA [Ctrl Apt (Biotin)],–,no binding
GGGAGACAAGAAUAAACGCUCAACGUUGACAACAAAUGACGAUCGUCAACAUGAUGCUUGAGCCCUGUUCGACAGGAGGCUCACAACAGGC [B85],binds,–
UGAGCCCUGUUCGACAGGAGGCUCA [B85.T2 (Biotin)],–,binds
